Results reported in paper doi:10.1101/2022.12.22.521453.
These are yes or no findings as the source states them, for the method shown. Some binding calls cover weakened binding; strength is not graded here.

Target: eIF2Bα2 dimer (human) (UniProt Q14232)
Assay: cryo-EM structure

B1: eIF2Bα2 dimer (complex, UniProt Q14232 2-305)
chain: DDKELIEYFKSQMKEDPDMASAVAAIRTLLEFLKRDKGETIQGLRANLTSAIETLCGVDSSVAVSSGGELFLRFISLASLEYSDYSKCKKIMIERGELFLRRISLSRNKIADLCHTFIKDGATILTHAYSRVVLRVLEAAVAAKKRFSVYVTESQPDLSGKKMAKALCHLNVPVTVVLDAAVGYIMEKADLVIVGAEGVVENGGIINKIGTNQMAVCAKAQNKPFYVVAESFKFVRLFPLNQQDVPDKFKYKADTLKVAQTGQDLKEEHPWVDYTAPSLITLLFTDLGVLTPSAVSDELIKLYL
- binding: binds
